The results in this text go back to the supplement of paper PMC12819154, “High-throughput peptide-centric local stability assay extends protein–ligand identification to membrane proteins, tissues and bacteria” (Nature Structural & Molecular Biology, 2025).

By UniProt entry, the sequences of proteins in these tests, tags left out. Where a name states a change or a piece, a line headed by the entry shows the natural chain unless it says otherwise.
UniProt P16403, whole entry: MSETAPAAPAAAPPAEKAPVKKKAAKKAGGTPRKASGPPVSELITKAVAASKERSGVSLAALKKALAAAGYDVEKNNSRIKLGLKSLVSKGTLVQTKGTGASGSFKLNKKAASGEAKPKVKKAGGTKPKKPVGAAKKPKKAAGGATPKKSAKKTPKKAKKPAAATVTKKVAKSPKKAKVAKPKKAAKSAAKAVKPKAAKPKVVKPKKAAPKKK
UniProt P16415: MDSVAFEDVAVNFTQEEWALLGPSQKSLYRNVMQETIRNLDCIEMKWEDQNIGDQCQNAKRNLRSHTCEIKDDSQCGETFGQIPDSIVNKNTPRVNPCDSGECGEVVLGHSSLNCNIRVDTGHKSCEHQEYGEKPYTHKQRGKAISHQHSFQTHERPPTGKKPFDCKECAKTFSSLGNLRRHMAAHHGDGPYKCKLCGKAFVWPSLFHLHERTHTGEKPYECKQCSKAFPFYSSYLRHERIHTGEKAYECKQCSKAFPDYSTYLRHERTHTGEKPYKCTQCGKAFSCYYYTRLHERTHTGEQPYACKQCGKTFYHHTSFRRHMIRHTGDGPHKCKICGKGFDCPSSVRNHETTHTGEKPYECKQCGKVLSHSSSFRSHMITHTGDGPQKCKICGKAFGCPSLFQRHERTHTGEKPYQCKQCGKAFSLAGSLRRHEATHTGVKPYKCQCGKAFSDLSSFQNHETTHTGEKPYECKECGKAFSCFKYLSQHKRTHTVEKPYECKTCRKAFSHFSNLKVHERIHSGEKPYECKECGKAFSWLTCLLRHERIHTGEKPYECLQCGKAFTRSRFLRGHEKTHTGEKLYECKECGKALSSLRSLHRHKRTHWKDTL
UniProt P14735, whole entry: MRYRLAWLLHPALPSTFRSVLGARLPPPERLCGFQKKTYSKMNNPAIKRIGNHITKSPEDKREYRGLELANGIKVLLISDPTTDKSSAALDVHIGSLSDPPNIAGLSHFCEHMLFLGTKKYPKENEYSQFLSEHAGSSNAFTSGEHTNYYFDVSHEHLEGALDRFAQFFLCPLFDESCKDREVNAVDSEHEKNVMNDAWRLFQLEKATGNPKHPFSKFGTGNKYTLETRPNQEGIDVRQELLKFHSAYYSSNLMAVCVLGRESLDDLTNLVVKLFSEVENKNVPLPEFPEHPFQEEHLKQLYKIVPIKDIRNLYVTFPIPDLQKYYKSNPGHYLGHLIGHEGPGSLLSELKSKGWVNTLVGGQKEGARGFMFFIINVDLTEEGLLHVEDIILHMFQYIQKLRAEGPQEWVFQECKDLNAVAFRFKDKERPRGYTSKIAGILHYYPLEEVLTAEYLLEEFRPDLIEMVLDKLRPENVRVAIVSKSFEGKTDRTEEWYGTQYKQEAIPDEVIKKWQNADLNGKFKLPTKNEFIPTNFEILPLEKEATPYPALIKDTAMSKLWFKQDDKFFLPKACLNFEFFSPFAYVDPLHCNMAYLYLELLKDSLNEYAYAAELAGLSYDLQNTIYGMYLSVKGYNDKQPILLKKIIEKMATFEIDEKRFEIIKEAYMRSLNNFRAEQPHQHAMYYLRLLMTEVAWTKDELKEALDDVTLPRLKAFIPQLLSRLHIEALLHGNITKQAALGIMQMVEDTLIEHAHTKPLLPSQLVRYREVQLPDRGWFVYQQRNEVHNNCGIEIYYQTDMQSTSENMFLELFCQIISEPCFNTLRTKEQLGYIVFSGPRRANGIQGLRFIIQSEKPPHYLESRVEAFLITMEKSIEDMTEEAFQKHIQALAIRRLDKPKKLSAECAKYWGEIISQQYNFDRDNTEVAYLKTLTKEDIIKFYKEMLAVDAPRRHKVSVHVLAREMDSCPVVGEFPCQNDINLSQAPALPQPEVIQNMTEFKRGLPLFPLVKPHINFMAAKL
UniProt P25787: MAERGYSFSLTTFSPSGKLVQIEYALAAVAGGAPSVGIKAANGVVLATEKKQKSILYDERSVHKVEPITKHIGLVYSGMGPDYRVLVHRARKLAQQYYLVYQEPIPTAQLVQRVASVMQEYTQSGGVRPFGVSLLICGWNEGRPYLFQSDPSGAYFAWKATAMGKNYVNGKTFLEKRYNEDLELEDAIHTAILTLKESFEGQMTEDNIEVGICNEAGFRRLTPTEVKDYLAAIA
UniProt P26639: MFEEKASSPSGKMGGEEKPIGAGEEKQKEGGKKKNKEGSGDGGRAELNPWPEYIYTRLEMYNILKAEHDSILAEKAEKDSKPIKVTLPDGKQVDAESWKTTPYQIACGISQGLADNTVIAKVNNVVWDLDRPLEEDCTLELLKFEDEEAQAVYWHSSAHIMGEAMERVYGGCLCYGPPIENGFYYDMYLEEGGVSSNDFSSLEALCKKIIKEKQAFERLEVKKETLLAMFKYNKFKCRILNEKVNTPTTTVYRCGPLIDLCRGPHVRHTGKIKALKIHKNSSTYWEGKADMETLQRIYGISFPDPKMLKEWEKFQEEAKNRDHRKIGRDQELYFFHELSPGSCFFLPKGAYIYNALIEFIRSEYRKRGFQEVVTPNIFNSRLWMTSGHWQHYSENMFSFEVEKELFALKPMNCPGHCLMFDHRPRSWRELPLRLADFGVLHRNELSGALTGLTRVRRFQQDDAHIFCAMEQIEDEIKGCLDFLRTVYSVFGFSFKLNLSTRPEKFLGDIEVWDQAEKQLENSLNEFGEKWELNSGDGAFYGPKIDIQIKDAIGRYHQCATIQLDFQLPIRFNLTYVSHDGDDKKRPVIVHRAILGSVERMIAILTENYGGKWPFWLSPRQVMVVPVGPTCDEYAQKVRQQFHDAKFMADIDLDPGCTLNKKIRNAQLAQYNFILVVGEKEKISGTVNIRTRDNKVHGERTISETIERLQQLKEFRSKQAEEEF
UniProt P15531, whole entry: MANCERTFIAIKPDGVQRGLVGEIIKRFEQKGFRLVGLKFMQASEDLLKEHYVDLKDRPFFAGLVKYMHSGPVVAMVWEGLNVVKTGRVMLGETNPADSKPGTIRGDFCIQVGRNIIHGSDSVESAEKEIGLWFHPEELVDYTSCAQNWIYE
UniProt P21980: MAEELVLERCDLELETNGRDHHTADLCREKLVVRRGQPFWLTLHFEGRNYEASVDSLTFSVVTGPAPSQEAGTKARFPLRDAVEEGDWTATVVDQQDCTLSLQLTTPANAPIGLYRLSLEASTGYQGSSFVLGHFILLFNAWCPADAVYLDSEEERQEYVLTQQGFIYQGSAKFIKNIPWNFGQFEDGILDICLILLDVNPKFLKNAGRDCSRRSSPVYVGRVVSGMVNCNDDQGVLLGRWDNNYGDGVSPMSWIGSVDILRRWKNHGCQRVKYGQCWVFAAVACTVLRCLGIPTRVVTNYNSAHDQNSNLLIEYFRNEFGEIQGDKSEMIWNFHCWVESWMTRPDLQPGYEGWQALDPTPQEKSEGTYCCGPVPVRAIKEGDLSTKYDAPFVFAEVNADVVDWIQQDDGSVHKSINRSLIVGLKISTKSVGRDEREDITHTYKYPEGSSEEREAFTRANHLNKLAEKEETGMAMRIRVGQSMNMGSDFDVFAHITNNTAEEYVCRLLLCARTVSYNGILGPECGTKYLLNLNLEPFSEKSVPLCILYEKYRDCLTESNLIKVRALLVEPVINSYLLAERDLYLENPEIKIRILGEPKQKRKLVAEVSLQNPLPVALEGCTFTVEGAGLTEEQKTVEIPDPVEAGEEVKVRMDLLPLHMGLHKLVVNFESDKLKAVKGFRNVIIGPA
UniProt P19525: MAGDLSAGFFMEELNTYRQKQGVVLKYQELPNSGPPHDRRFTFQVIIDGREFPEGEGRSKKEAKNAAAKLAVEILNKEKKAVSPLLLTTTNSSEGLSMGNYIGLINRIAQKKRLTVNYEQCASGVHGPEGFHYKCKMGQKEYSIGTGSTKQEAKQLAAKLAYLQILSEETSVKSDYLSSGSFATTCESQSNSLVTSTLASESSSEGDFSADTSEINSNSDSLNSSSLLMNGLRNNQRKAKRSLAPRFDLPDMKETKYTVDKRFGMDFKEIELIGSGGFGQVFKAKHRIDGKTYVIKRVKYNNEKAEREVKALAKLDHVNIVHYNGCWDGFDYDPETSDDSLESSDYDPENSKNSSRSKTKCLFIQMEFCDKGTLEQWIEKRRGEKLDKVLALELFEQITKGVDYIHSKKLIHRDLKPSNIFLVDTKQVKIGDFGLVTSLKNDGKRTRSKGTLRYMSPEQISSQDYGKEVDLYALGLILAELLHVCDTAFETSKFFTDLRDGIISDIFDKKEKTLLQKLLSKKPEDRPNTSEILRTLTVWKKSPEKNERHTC
UniProt P17036: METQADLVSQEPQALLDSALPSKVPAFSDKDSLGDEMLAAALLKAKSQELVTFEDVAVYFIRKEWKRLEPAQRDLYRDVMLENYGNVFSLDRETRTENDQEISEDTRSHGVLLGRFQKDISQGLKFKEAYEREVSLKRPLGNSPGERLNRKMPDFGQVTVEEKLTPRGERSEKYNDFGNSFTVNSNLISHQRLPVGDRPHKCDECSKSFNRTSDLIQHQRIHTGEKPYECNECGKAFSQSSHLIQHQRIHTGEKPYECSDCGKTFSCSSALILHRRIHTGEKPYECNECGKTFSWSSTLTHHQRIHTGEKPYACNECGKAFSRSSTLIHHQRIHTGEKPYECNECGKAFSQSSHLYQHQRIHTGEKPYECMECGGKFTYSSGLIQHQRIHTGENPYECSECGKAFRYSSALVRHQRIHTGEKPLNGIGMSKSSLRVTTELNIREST
UniProt P27987: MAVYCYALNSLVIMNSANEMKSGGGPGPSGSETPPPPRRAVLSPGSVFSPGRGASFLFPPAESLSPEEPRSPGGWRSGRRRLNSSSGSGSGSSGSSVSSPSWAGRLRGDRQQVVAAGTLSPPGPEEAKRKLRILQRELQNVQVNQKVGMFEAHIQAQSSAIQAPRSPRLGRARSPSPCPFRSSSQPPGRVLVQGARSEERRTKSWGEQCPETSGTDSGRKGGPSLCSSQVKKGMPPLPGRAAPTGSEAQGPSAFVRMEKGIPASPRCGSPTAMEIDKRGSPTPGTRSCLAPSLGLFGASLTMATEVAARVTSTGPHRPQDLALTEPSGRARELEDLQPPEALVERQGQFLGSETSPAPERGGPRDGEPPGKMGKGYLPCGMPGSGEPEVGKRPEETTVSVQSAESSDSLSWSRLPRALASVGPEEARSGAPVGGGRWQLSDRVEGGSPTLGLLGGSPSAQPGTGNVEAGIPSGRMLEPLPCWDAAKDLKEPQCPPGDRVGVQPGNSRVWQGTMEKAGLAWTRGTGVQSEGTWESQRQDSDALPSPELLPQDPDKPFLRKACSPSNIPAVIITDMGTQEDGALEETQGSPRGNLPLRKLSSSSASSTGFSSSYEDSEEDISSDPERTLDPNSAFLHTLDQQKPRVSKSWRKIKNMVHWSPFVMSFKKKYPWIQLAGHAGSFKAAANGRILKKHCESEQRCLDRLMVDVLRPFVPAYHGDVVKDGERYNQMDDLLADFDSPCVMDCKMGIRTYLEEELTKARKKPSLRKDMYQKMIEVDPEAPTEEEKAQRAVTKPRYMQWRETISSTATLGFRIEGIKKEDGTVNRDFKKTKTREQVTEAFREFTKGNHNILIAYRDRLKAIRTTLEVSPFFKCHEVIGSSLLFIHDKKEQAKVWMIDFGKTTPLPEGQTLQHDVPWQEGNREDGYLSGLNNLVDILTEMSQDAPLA
UniProt P23109: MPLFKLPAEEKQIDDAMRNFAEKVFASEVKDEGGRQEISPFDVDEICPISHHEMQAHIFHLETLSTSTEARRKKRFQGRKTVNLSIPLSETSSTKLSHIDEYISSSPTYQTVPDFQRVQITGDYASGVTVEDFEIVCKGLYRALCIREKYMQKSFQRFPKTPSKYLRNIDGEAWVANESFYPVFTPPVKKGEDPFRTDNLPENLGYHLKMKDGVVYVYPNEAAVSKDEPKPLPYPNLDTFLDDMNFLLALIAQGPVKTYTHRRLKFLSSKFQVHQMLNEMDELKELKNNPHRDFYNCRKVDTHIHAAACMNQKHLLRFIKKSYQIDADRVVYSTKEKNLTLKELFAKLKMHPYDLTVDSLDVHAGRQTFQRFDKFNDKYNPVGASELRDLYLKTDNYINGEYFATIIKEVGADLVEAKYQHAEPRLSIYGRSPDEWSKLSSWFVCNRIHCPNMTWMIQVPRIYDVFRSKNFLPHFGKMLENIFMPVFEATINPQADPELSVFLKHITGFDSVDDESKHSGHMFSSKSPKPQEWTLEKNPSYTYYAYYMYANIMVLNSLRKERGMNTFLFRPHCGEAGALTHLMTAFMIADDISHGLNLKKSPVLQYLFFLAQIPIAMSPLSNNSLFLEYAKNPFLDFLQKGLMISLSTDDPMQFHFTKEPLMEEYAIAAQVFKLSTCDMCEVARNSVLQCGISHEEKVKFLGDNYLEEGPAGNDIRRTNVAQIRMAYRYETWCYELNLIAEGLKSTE
UniProt P18847: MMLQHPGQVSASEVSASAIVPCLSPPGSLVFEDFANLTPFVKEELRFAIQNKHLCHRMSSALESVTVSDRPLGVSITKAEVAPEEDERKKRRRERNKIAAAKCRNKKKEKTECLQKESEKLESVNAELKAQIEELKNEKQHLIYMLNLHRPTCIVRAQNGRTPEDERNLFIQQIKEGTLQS

The other results are listed elsewhere or left out. Most entries show no effect beyond the scatter of the controls.

Compound in this experiment: Cc1nc(Nc2ncc(C(=O)Nc3c(C)cccc3Cl)s2)cc(N2CCN(CCO)CC2)n1 [dasatinib]
The experiment in a line: log2 fold change of tryptic peptide abundance, ligand vs vehicle (limited proteolysis) (log2 ratio); higher = more trypsin-susceptible (destabilized). Conditions: ligand concentration: 5 uM; sample: K562 cleared lysate.
For “HIST1H1C (peptide sequence: PAAATVTKK, peptide start residue: 161) (UniProt P16403)”, the log2 fold change was -0.143.
On to “UniProt P16415 (peptide sequence: SCEHQEYGEKPYTHK, peptide start residue: 125)”, for which the log2 fold change turned out to be 0.24.
With “IDE (peptide sequence: GWFVYQQR, peptide start residue: 775) (UniProt P14735)”, the log2 fold change was -0.409.
Consider “PCMT1 (peptide sequence: TDKVFEVMLATDR, peptide start residue: 25) (UniProt P22061)”, for which the log2 fold change was -0.118.
Regarding “UniProt P25705 (peptide sequence: VVDALGNAIDGK, peptide start residue: 150)”, the log2 fold change was found to be 0.111.
Take “WARS (peptide sequence: IDKELINR, peptide start residue: 112) (UniProt P23381)”: the log2 fold change is -0.303.
Take “CANX (peptide sequence: IVDDWANDGWGLKK, peptide start residue: 446) (UniProt P27824)”: the log2 fold change is -0.258.
Regarding “PSMA3 (peptide sequence: HVGMAVAGLLADAR, peptide start residue: 73) (UniProt P25788)”, the log2 fold change is 0.107.
For “UniProt P19544 (peptide sequence: HHNMHQR, peptide start residue: 434)”, the log2 fold change is -0.323.
Then “UniProt P23468 (peptide sequence: YGREVELK, peptide start residue: 1182)”, with 0.14.
Turning to “PSMA2 (peptide sequence: HIGLVYSGMGPDYR, peptide start residue: 71) (UniProt P25787)”, the log2 fold change was -0.405.
With “UniProt P26639 (peptide sequence: CGPLIDLCR, peptide start residue: 254)”, the log2 fold change was -0.279.
Take “S100A4 (peptide sequence: ALDVMVSTFHK, peptide start residue: 8) (UniProt P26447)”: the log2 fold change is -0.403.
The value for “MYL12A (peptide sequence: GNFNYIEFTR, peptide start residue: 152) (UniProt P19105)” was -0.0726; that for “NME1 (peptide sequence: GLVGEIIKR, peptide start residue: 19) (UniProt P15531)” was -0.35; that for “EPHA1 (peptide sequence: LVKKEPR, peptide start residue: 455) (UniProt P21709)” was -0.322.
With “UniProt P26367 (peptide sequence: THYPDVFAR, peptide start residue: 232)”, the log2 fold change is -0.142.
For “ALAS2 (peptide sequence: GHCPFMLSELQDGK, peptide start residue: 68) (UniProt P22557)”, the log2 fold change is -0.19.
The value for “TGM2 (peptide sequence: DLYLENPEIK, peptide start residue: 581) (UniProt P21980)” was 0.217.
For “NQO1 (peptide sequence: EGHLSPDIVAEQK, peptide start residue: 78) (UniProt P15559)”, the log2 fold change is -0.447.
Take “UniProt P19525 (peptide sequence: DGIISDIFDKKEK, peptide start residue: 500)”: the log2 fold change was -0.328.
With “CFL1 (peptide sequence: AVLFCLSEDK, peptide start residue: 35) (UniProt P23528)”, the log2 fold change came out at 0.102.
Turning to “CDK2 (peptide sequence: AALAHPFFQDVTKPVPHLR, peptide start residue: 279) (UniProt P24941)”, the log2 fold change was -0.43.
As to “UniProt P17036 (peptide sequence: TSDLIQHQR, peptide start residue: 212)”, the log2 fold change was 0.0165.
On to “ATF7 (peptide sequence: AADEDEKK, peptide start residue: 81) (UniProt P17544)”, for which the log2 fold change turned out to be 0.0719.
“ITPKB (peptide sequence: TYLEEELTK, peptide start residue: 269) (UniProt P27987)”: the log2 fold change is -0.0683.
As to “UniProt P17600 (peptide sequence: QASQAGPVPR, peptide start residue: 603)”, the log2 fold change turned out to be 0.0522.
On to “UniProt P25098 (peptide sequence: ISDLGLACDFSKK, peptide start residue: 333)”, for which the log2 fold change is -0.639.
In the case of “EEF1G (peptide sequence: DPFAHLPK, peptide start residue: 278) (UniProt P26641)”, the log2 fold change was -0.16.
As for “RPS2 (peptide sequence: EWMPVTK, peptide start residue: 59) (UniProt P15880)”, the log2 fold change stood at 0.0917.
For “PRKCH (peptide sequence: CHHLIVTACTCQNNINKVDSK, peptide start residue: 214) (UniProt P24723)”, the log2 fold change was 0.599.
Consider “UniProt P23109 (peptide sequence: KVDTHIHAAACMNQK, peptide start residue: 313)”, for which the log2 fold change was -0.126.
The value for “ATF3 (peptide sequence: AEVAPEEDER, peptide start residue: 79) (UniProt P18847)” was -0.368; that for “RAC2 (peptide sequence: LDLRDDKDTIEK, peptide start residue: 117) (UniProt P15153)” was -0.275.
Then “CBL (peptide sequence: KSSGAGGGSGSGGSGSGGLIGLMK, peptide start residue: 7) (UniProt P22681)”, with -0.581; and “UniProt P17252 (peptide sequence: AEVADEKLHVTVR, peptide start residue: 166)”, with -0.542; and “LMNB1 (peptide sequence: EQHDAQVR, peptide start residue: 251) (UniProt P20700)”, with -0.166.
